Results are given in words; binding and its absence hold for the method and conditions named. Some binding calls cover weakened binding; strength is not graded here. Where a sequence is shown, tags or fusion partners need not be part of it.

In the test the target is T1, CD127-Fc (Sino Biological) (UniProt P16871).
T1 sequence (looked up): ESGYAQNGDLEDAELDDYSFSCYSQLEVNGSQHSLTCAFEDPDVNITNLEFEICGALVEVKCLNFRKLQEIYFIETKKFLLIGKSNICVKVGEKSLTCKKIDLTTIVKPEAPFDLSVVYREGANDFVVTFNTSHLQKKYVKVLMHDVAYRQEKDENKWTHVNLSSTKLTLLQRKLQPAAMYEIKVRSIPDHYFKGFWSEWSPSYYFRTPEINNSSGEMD
Nature of the test: SPR (Biacore), CD127-Fc immobilised.

B1: Effi3-VH3VL3 (antibody, V domains shown)
VH: AVQLVESGGGLVQPGGSLKITCAASGFTFTNAAMYWVRQAPGKGLEWVARIRTKANNYATYYADSVKGRFTISRDDSKSTVYLQMDSVKTEDTATYYCIVVVLTTTRDYFDYWGQGVLVTVSS
VL: DIVLTQSPSSLPVTPGEPASISCRSSQSLLTVKGITSLYWFLQKPGQSPKLLIYRMSNRDSGVPDRFSGSGSETDFTLKISRVEAEDVGTYYCAQFLEYPHTFGAGTKLELKR
notes: also called Effi3-VH3L3; Effi3 clone VH3VL3
Consider B1, for which the binding entry is recorded as “binds”.

For the origin of these results see patent US20200362300A1 (OSE IMMUNOTHERAPEUTICS, published 2020).
